From US9155802
These are yes or no findings as the source states them, for the method shown. Some entries that bind do so weakly or less than the wild type.

B1: 992 chimeric IgG1 (antibody, V domains shown)
VH: EVQLQQPGSELVRPGASVKLSCKASGYTFTSYWMHWVKQRPGQGLEWIGNIYPGSRSTNYDEKFKSKATLTVDTSSSTAYMQLSSLTSEDSAVYYCTRNGDYYVSSGDAMDYWGQGTSVTVS
VL: DIQMTQTTSSLSASLGDRVTISCRTSQDIGNYLNWYQQKPDGTVKLLIYYTSRLHSGVPSRFSGSGSGTDFSLTINNVEQEDVATYFCQHYNTVPPTFGGGTKLEIKR
B2: 1024 chimeric IgG1 (antibody, V domains shown)
VH: QVQLQQPGAELVEPGGSVKLSCKASGYTFTSHWMHWVKQRPGQGLEWIGEINPSSGRNNYNEKFKSKATLTVDKSSSTAYMQFSSLTSEDSAVYYCVRYYGYDEAMDYWGQGTSVTVS
VL: DIVMTQAAFSNPVTLGTSASISCRSSKSLLHSNGITYLYWYLQKPGQSPQLLIYQMSNLASGVPDRFSSSGSGTDFTLRISRVEAEDVGVYYCAQNLELPYTFGGGTKLEIKR
B3: 1030 chimeric IgG1 (antibody, V domains shown)
VH: EVQLVESGGGLVKPGGSLKLSCAASGFTFSSYALSWVRQTPERRLEWVASISGVGSTYFPDSVKGRFTMSRDNARNILYLQMSSLRSEDTAMYYCARGSDGYFYAMDYWGQGTSVTVS
VL: DIVLTQSPASLAVSLGQRATISCRASKSVSTSGYSFMHWYQLKPGQPPKLLIYLASNLESGVPARFSGSGSGTDFTLNIHPVEEEDAATYYCQHSREFPLTFGGGTKLEIKR
B4: 4382 chimeric IgG1 (antibody, V domains shown)
VH: EVQLQQSGPELVKPGASVKISCTASGYTFTDYYMNWVKQSHGKSLEWIGDINPNNGGTNYNQKWKGKATLTIHKSSSTAYMELRSLTSEDSAVYFCVPGGLRSYFDYWGQGTTLTVS
VL: DIVMTQSLKFMSASVGDRVSITCKASQDVSAAVAWYQQKPGQSPELLIYWASTRHTGVPDRFTGSGSGTDYTLTISSVQAEDLALYYCQQHYTTPPTFGGGTKLEIKR
B5: 4385 chimeric IgG1 (antibody, V domains shown)
VH: QVTLKESGAELMKPGASVKLSCKATGYTFTGYWIEWVKQRPGHGLEWIGEILPGSGSTNYNEKFKGEATFTADTSSNTAYMHLSSLTTEDSAIYYCARWGDGSFAYWGQGTLVTVS
VL: DIVMTQSQKFMSTSVGDRVSITCKASQNVGTAVSWYQQKPGQSPKLLIFSTSNRYTGVPDRFTGSGSGTDFTLTISNMQSEDLADYFCQQYRSYPFTFGSGTKLEIKR
B6: 4518 chimeric IgG1 (antibody, V domains shown)
VH: EVQLQQSGADLVKPGASVKLSCTTSGFNIKDIFIHWVKERPEQGLEWIGRIDPANDNPKYDPKFQGKATISADTSSNTAYLRLSSLTSEDTAVYYCAGGPAYFDYWGQGTTLTVS
VL: DIVMTQSHKFMSTSVGDRVSISCKASQDVIAAVTWYQQKPGQSPKLLIYWASTRHTGVPDRFTGSGSGTDYTLTISSMQAEDLALYYCQQHYSTPWTFGGGTKLEIKR
B7: 5096 chimeric IgG1 (antibody, V domains shown)
VH: EVQLQQSGPELVKPGASVKMSCKASGYTFTSYLLHWVKQKPGQGLEWIGYINPYNDGAKYNEKLKGKATLTSDKSSSTAYMEVSSLTSEDSAVYYCAREGDYVRYYGMDYWGQGTSVTVS
VL: DIVLTQSPSSLAVSAGEKVTMSCKSSQSVLYISNERNYLAWYQQKPGQSPKLLIYWASTRKSGVPDRFTGSGSGTDFTLTISSVKAEDLAVYYCHQHLSSYTFGGGTKLEIKR
B8: 4785 chimeric IgG1 (antibody, V domains shown)
VH: EVQLQQSGPELVMPGASVKISCKASGYSFTSYYVHWVKQRPGQGLEWIGWIYPGSGHTKYNEKFKDKATLTADTSSSTAYMQLSSLTSEDSAVYYCARPPYYSNYADVWGTGTTVTVS
VL: DIVMTQSPSSLTVTAGEKVTMSCKSSQSLLNSGNQKNYLTWYQQKPGQPPKLLIYWASTRESGVPDRFTGSGSGTDFTLTISSVQAEDLAVYYCQSDYSYPYTFGGGTKLEIKR
B9: 5082 chimeric IgG1 (antibody, V domains shown)
VH: EVQLKESGPGLVKPSQSLSLTCSVTGYSITSAYYWNWIRQFPGNKVEWMGYIGYDGRNTYNPSLKNRISITRDTSKNQFFLKLNSLTTEDTATYYCSREGDYGYSDYWGQGTTLTVS
VL: DIVMTQATSSLSASLGDRVTVSCRASQDINNYLNWYQQKPDGTVKLLIYYTSRLQSGVPSRFSGSGSGIDYSLTISNLEQEDFVTYFCQQSETLPWTFGGGTKLELKR

molecular target: EGFR (UniProt P00533); assay: SPR epitope analysis

Row | Binder | binding
1 | B1 | binds
2 | B2 | binds
3 | B3 | binds

molecular target: HER2 (UniProt P04626); assay: SPR epitope analysis

Row | Binder | binding
4 | B4 | binds
5 | B5 | binds
6 | B6 | binds

molecular target: HER3 (UniProt P21860); assay: SPR epitope analysis

Row | Binder | binding
7 | B7 | binds
8 | B8 | binds
9 | B9 | binds
